Data source: PubChem BioAssay AID1159545 (Gurdon Institute, 2015)
Assay: 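E2 knock-downs that weaken or strengthen the phospho-RPA2 damage signal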. System: human U2OS osteosarcoma cells. Reagents: siRNA against human genes, about 60 nM siRNA. Challenge: camptothecin 1 uM for 1 hour. Measured: 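After a 1 h pulse of 1 µM camptothecin, the phospho-RPA2/total RPA2 band ratio is scaled to luciferase siRNA control, minus the same ratio without damage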. Reading the numbers: pRPA2/RPA2 after camptothecin, % control: higher = more RPA2 phosphorylation after camptothecin. Hit rule: 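Called active when phospho-RPA2 to RPA2 departs from control in either direction by over 40 percent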.
Here is an unselected part of 42 deposited reagents. Over the whole deposit, 21 (50%) are marked active. Reagents against one gene are numbered here. No sequences are given here. The record does not give: the time to read-out.

What did the screen give for UBE2L6?
pRPA2/RPA2 after camptothecin, % control: 99.3; Call: inactive

What is on record for UBE2Q1?
pRPA2/RPA2 after camptothecin, % control: 29.2; Call: active

Which result is listed for TSG101?
pRPA2/RPA2 after camptothecin, % control: 99.1; Call: inactive

With AKTIP, what does the deposit list?
pRPA2/RPA2 after camptothecin, % control: 85; Call: inactive

Which result is listed for UBE2D1?
pRPA2/RPA2 after camptothecin, % control: 72.6; Call: inactive

What is on record for UBE2F?
pRPA2/RPA2 after camptothecin, % control: 45.5; Call: active

What did the screen give for UBE2V2?
pRPA2/RPA2 after camptothecin, % control: 41.4; Call: active

How did the screen score UBE2S?
pRPA2/RPA2 after camptothecin, % control: 61.7; Call: inactive

Which result is listed for UBE2N #1?
pRPA2/RPA2 after camptothecin, % control: 3.26; Call: active

With UBE2N #2, what does the deposit list?
pRPA2/RPA2 after camptothecin, % control: 37.8; Call: active

With UBE2G2, how do the results read?
pRPA2/RPA2 after camptothecin, % control: 71; Call: inactive

For UBE2G1, what does the deposit list?
pRPA2/RPA2 after camptothecin, % control: 39.7; Call: active

What is on record for UBE2B?
pRPA2/RPA2 after camptothecin, % control: 116; Call: inactive

For UBE2Z, what does the deposit list?
pRPA2/RPA2 after camptothecin, % control: 84.1; Call: inactive

What did the screen give for UBE2K?
pRPA2/RPA2 after camptothecin, % control: 27.2; Call: active

Which result is listed for BIRC6?
pRPA2/RPA2 after camptothecin, % control: 68.2; Call: inactive

Which result is listed for UBE2R2?
pRPA2/RPA2 after camptothecin, % control: 24.5; Call: active

How did the screen score UBE2E1?
pRPA2/RPA2 after camptothecin, % control: 112; Call: inactive

With UBE2D4, how do the results read?
pRPA2/RPA2 after camptothecin, % control: 76.9; Call: inactive

How did the screen score UBE2E3?
pRPA2/RPA2 after camptothecin, % control: 45.8; Call: active

For UBE2Q2, what was measured?
pRPA2/RPA2 after camptothecin, % control: 85.6; Call: inactive

For UBE2D3, how do the results read?
pRPA2/RPA2 after camptothecin, % control: 0; Call: active

What did the screen give for UBE2T?
pRPA2/RPA2 after camptothecin, % control: 42.4; Call: active

For UBE2H, how do the results read?
pRPA2/RPA2 after camptothecin, % control: 60.9; Call: inactive

With BRCA1, what was measured?
pRPA2/RPA2 after camptothecin, % control: 102; Call: inactive

How did the screen score UBE2A?
pRPA2/RPA2 after camptothecin, % control: 36.3; Call: active

What is on record for UBE2D2?
pRPA2/RPA2 after camptothecin, % control: 7.58; Call: active

How did the screen score UBE2U?
pRPA2/RPA2 after camptothecin, % control: 22.7; Call: active

For UBE2E2, what was measured?
pRPA2/RPA2 after camptothecin, % control: 64.9; Call: inactive

With UBE2M, how do the results read?
pRPA2/RPA2 after camptothecin, % control: 140; Call: inactive

With UBE2W, what does the deposit list?
pRPA2/RPA2 after camptothecin, % control: 42.1; Call: active

How did the screen score UBE2V1?
pRPA2/RPA2 after camptothecin, % control: 52.4; Call: active

As entered above.
Result of UBE2Q2 under “pRPA2/RPA2 after camptothecin, % control”: 85.6
BRCA1, pRPA2/RPA2 after camptothecin, % control = 102
UBE2Z, pRPA2/RPA2 after camptothecin, % control = 84.1
For “pRPA2/RPA2 after camptothecin, % control”, UBE2E1 has 112
